# In publication PMC9519289:
# Results are given in words; binding and its absence hold for the method and conditions named. In cells and extracts the contact can be indirect. Some results given as binding are weak or reduced against the parent protein; the word gives no strength.
# T1: Regulated in development and DNA damage response 1 (REDD1) (human (endogenous in HK-2)) (UniProt Q9NX09)
# T1 sequence: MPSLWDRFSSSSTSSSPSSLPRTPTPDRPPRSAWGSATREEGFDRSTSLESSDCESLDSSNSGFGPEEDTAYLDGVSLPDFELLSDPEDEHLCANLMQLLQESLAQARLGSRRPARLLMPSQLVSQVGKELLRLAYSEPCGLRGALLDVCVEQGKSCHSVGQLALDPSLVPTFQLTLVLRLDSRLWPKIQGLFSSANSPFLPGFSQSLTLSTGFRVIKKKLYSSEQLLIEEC
# B1: thioredoxin-interacting protein (TXNIP) (protein, UniProt Q9H3M7 1-391)
# chain: MVMFKKIKSFEVVFNDPEKVYGSGEKVAGRVIVEVCEVTRVKAVRILACGVAKVLWMQGSQQCKQTSEYLRYEDTLLLEDQPTGENEMVIMRPGNKYEYKFGFELPQGPLGTSFKGKYGCVDYWVKAFLDRPSQPTQETKKNFEVVDLVDVNTPDLMAPVSAKKEKKVSCMFIPDGRVSVSARIDRKGFCEGDEISIHADFENTCSRIVVPKAAIVARHTYLANGQTKVLTQKLSSVRGNHIISGTCASWRGKSLRVQKIRPSILGCNILRVEYSLLIYVSVPGSKKVILDLPLVIGSRSGLSSRTSSMASRTSSEMSWVDLNIPDTPEAPPCYMDVIPEDHRLESPTTPLLDDMDGSQDSPIFMYAPEFKFMPPPTYTEVDPCILNNNVQ
# Biological target: T1, Regulated in development and DNA damage response 1 (REDD1) (human (endogenous in HK-2))
# Experiment: co-IP; endogenous proteins; lysate supernatant with primary antibody at 4°C overnight, protein A/G sepharose 3 h, three washes, western blot; cells under normal glucose (5.6 mM) or high glucose (30 mM)
binder,measurement,value
B1,binding,binds
